Where a name gives a salt, the structure may show the parent alone. Some of the results follow. Hit calls seldom repeat between salt and free forms of one compound.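 Kinases were expressed as nanoluciferase fusions in K562 cells and luminescence was read every 4 h between 2 and 18 h as percent of control, DMSO set to 100% and a positive control to 0%. A time point counts as decreased when the signal drops significantly (2 sigma). The hit call is the authors' own, does not follow from the count of time points alone, and its rule is not shown.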
Columns and labels:
Details in all cases: K562; 2-18 h
YES1 = YES1 (UniProt P07947); assay: number of time points (of 5) at which kinase-Nluc abundance scored as decreased, DMSO-normalised (count); higher = more persistent destabilization
ZAK = ZAK (UniProt Q9NYL2); assay: as above
ZAP70 = ZAP70 (UniProt P43403); assay: as above
CDK4 = CDK4 (UniProt P11802); assay: number of time points (of 4; 2 h point missing) at which kinase-Nluc abundance scored as decreased, DMSO-normalised (count); higher = more persistent destabilization
CDK7 = CDK7 (UniProt P50613); assay: as above
CDK9 = CDK9 (UniProt P50750); assay: as above

Sequences of proteins named here, by UniProt entry; tags and fusion partners are left off. A change or cut given only in a name is not applied to a line headed by its entry.
UniProt P07947, whole entry, looked up: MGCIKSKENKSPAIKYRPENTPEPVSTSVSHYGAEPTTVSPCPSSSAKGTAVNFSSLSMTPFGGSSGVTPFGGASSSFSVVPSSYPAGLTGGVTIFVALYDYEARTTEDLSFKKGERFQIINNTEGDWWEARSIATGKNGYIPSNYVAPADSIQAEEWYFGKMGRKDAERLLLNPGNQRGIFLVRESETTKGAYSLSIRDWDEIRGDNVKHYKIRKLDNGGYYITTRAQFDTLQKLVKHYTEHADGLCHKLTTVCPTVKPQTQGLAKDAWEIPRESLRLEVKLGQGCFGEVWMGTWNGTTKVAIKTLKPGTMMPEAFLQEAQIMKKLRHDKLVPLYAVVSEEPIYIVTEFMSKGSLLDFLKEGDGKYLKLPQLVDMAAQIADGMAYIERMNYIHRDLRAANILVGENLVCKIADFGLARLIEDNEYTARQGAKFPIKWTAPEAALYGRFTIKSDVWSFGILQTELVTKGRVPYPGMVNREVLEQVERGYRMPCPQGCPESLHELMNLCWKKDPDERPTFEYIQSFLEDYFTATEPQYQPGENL
UniProt P43403: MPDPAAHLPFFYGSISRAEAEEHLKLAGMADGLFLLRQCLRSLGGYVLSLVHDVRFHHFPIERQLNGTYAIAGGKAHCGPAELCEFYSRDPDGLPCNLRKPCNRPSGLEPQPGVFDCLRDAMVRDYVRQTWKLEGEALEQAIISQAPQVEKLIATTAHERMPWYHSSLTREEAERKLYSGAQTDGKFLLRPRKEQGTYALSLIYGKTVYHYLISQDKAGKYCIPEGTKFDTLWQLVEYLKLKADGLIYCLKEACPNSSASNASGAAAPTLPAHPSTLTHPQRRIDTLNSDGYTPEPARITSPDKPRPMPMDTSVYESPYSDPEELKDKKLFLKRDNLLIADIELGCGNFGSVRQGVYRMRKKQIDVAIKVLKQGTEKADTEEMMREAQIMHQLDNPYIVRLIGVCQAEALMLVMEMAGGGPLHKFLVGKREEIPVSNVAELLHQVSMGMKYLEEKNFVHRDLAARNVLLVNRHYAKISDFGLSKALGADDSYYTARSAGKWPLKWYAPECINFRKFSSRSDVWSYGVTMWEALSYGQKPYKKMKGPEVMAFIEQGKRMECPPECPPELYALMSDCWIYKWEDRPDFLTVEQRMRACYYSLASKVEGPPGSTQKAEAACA
UniProt P11802: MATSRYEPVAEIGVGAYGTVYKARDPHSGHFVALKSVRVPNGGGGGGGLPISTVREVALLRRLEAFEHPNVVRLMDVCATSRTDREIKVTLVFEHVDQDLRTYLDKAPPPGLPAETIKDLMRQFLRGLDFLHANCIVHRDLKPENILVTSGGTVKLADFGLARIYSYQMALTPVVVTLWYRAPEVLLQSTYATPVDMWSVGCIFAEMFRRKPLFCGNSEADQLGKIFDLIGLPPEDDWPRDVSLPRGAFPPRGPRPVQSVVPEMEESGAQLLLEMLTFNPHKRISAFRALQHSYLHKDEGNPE
UniProt P50613: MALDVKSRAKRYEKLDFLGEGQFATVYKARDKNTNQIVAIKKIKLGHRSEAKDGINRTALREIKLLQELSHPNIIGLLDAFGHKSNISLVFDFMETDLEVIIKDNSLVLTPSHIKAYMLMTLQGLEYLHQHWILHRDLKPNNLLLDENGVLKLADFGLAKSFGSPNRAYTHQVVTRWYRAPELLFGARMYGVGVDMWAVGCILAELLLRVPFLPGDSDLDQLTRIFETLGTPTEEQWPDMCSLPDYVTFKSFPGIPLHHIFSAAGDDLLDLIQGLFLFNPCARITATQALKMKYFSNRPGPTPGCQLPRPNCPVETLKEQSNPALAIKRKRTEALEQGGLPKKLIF
UniProt P50750, whole entry: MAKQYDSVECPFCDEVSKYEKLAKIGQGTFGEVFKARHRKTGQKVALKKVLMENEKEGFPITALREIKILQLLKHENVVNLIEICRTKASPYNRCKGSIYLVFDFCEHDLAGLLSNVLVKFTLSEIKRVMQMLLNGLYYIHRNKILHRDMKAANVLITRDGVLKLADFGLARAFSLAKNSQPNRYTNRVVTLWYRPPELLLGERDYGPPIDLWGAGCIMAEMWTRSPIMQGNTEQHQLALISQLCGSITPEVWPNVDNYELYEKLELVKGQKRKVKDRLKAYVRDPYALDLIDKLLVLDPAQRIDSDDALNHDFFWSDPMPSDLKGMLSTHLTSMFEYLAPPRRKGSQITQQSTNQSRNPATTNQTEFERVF

Measured: number of time points

NS(=O)(=O)c1ccc(N2N=C(c3ccccc3)CC2c2ccccc2)cc1 (centres undefined) (10 µM)
0: all assays above

CCc1ccc(C(=O)COc2ccc(CC3SC(=O)NC3=O)cc2)nc1 (centres undefined) (10 µM)
0: all assays above

COc1cc(N2CCC(O)CC2)ccc1Nc1cc(Nc2ccccc2S(=O)(=O)C(C)C)c2cc[nH]c2n1 (10 µM)
0: all assays above

CCn1nc(C2CCN(C(=O)CCO)CC2)nc1-c1cnc(N)c(-c2nnc(C(C)(C)C)o2)n1 (10 µM)
0: all assays above

O=C(O)c1ccc(N2N=C(Cc3ccccc3)C(=Cc3ccc(-c4ccccc4F)o3)C2=O)cc1 (10 µM)
0: all assays above

C[C@@H]1COCCN1c1cc(C2([S@](C)(=N)=O)CC2)nc(-c2cc[nH]c3nccc2-3)n1 [Ceralasertib] (2.5 µM)
0: all assays above

CCCNC(=O)c1cn2ncnc(Nc3cc(C(=O)NC4CC4)ccc3C)c2c1C (10 µM)
0: all assays above

OCCN(CCO)c1ccc(C(c2ccc(Cl)cc2)c2ccc(N(CCO)CCO)cc2)cc1 (10 µM)
4: CDK9
0: ZAP70 | CDK4
2: YES1 | ZAK
3: CDK7

[O-][n+]1cccc(-c2nc3c(Cl)cccc3cc2[C@@H](Nc2ncnc3cccnc23)C(F)(F)F)c1 [Seletalisib] (10 µM)
0: all assays above

C[C@@H]1O[C@@H](OC[C@H]2O[C@@H](Oc3cc(O)c4c(c3)O[C@H](c3ccc(O)cc3)CC4=O)[C@H](O)[C@@H](O)[C@@H]2O)[C@H](O)[C@H](O)[C@H]1O [Narirutin] (10 µM)
0: all assays above

Fc1c(Br)cccc1Nc1ncnc2cc3c(cc12)OCCO3 (2.5 µM)
1: CDK4
0: all other assays above

2 compounds picked at random from those above:
[O-][n+]1cccc(-c2nc3c(Cl)cccc3cc2[C@@H](Nc2ncnc3cccnc23)C(F)(F)F)c1 [Seletalisib] (10 µM)
0: all assays above

OCCN(CCO)c1ccc(C(c2ccc(Cl)cc2)c2ccc(N(CCO)CCO)cc2)cc1 (10 µM)
4: CDK9
0: ZAP70 | CDK4
2: YES1 | ZAK
3: CDK7

Continuation.

CCOC(=O)c1c2c3c(cccc3[nH]c1=O)C(=O)c1ccccc1-2 (10 µM)
0: all assays above

CCCCOc1ccc(CC/C=C2\SC(=O)N(CCN)C2=O)cc1 [K145 (hydrochloride)] (2.5 µM)
0: all assays above

COc1ccc2c(=O)c(-c3ccccc3)coc2c1 [7-Methoxyisoflavone] (10 µM)
0: all assays above

C=CC(=O)Nc1cccc(Oc2nc(Nc3ccc(N4CCN(C)CC4)cc3)nc3ccoc23)c1 [Poseltinib] (10 µM)
0: all assays above

Cc1ccc(-c2ncn(-c3ccc(Nc4nccc(-c5cccc(N6CCOCC6)c5)n4)cc3)n2)cn1 (10 µM)
0: all assays above

COc1c(C)c(C(=O)c2ccc(N)c(C(=O)O)c2)n2ccccc12 (10 µM)
0: all assays above

Oc1ccccc1C(=S)N1CCCC1 (10 µM)
0: all assays above

O=C(O)c1ccc(-c2c[nH]c3ncc(-c4ccccc4)cc23)cc1C1CCCC1 (2.5 µM)
1: CDK7
0: all other assays above

c1ccc(-c2oc3ncnc(NC[C@@H]4CCCO4)c3c2-c2ccccc2)cc1 (2.5 µM)
0: all assays above

CC(C)(C)C(=O)N1N=CC[C@H]1c1ccccc1 (10 µM)
0: all assays above

CN(C)Cc1cccc(N=C(c2ccccc2)c2c(O)[nH]c3cc(C(N)=O)ccc23)c1 (10 µM)
0: all assays above

O=C(O)CCc1ccc(NCc2cccc(Oc3ccccc3)c2)cc1 (10 µM)
0: all assays above

C[C@@H]1CCc2ncc(F)cc2[C@H]2CCCN2c2ccn3ncc(c3n2)C(=O)N1 [Selitrectinib] (10 µM)
0: all assays above

O=[N+]([O-])c1ccc(Sc2cccc[n+]2[O-])c2nonc12 (2.5 µM)
0: all assays above

Cc1cc2ncc(-c3ccccc3)nc2cc1C (10 µM)
0: all assays above

COc1ccc(CN2C3CC2CN(c2ccc(-c4cc(OCC(C)(C)O)cn5ncc(C#N)c45)cn2)C3)cn1 [Selpercatinib] (10 µM)
0: all assays above

COc1ccc(-n2c(C)c([N+](=O)[O-])c3ccc(O)cc32)cc1 (10 µM)
0: all assays above

CC1(N)CCN(c2cnc3c(-c4cccc(Cl)c4Cl)[nH]nc3n2)CC1 (2.5 µM)
0: all assays above

CC1=C(C(=O)Nc2ccc3[nH]ncc3c2)C(c2ccc(F)cc2)NC(=O)N1 (centres undefined) (10 µM)
0: all assays above

O=C(O)c1cc(O)c2c(c1)[C@@H]([C@H]1c3cc(C(=O)O)cc(O)c3C(=O)c3c(O[C@@H]4O[C@H](CO)[C@@H](O)[C@H](O)[C@H]4O)cccc31)c1cccc(O[C@@H]3O[C@H](CO)[C@@H](O)[C@H](O)[C@H]3O)c1C2=O [Sennoside B] (2.5 µM)
0: all assays above

COc1cc2ncnc(Nc3ccc(NC(=O)c4ccccc4)cc3)c2cc1OC [Aurora kinase inhibitor-2] (2.5 µM)
0: all assays above

Cc1cc(Nc2nc(N[C@@H](C)c3ncc(F)cn3)ncc2Cl)[nH]n1 (10 µM)
0: all assays above

O=C(Nc1cccc(-c2nncn2C2CC2)c1)c1cc(-n2cnc(C3CC3)c2)ccn1 (10 µM)
0: all assays above

COc1c(O)cc2oc3cc(O)c(CC=C(C)C)c(O)c3c(=O)c2c1CCC(C)(C)O [Garcinone D] (2.5 µM)
0: all assays above

Nc1ncc(-c2ccc(C(=O)N3CCNCC3)cc2)nc1-c1ccc(C(F)(F)F)cc1 (10 µM)
0: all assays above

C=CC(=O)Nc1cccc(-n2c(=O)cc(C)c3cnc(Nc4ccc(OCCN(C)C)cc4OC)nc32)c1 (10 µM)
0: all assays above

Cc1cccc(-c2[nH]ncc2-c2ccc3ncccc3n2)n1 (10 µM)
0: all assays above

CCOc1nc(Nc2ccc(C(=O)N3CCOCC3)cc2OC)nc2[nH]ccc12 [LRRK2 inhibitor 1] (2.5 µM)
0: all assays above

COc1nc(-c2cccc3c2OCCO3)ccc1Nc1ccc(CN(C)C)cc1 [RAS inhibitor Abd-7] (10 µM)
0: all assays above

COc1ccc2c(c1OC)OC1c3ccc(O)cc3OCC21 (centres undefined) [Methylnissolin] (10 µM)
0: all assays above

CCc1cccc(CC)c1NC(=O)c1nn(C)c2c1CCc1cnc(Nc3ccc(C(=O)NC4CCN(C)CC4)cc3OC(F)(F)F)nc1-2 (2 µM)
0: all assays above

Nc1cc(C(F)(F)F)c(-c2nc(N3CCOCC3)nc(N3CCOCC3)n2)cn1 [Bimiralisib] (10 µM)
3: CDK7
0: all other assays above

CCOc1ccccc1C=C1C(=O)Nc2ccccc21 (10 µM)
0: all assays above

Reference: the supplement of paper PMC12823440, “Inhibitors supercharge kinase turnover through native proteolytic circuits” (Nature, 2025)
